Laboratory results published in PubChem BioAssay AID493014 (National Center for Advancing Translational Sciences (NCATS), 2011).
The other results are listed elsewhere or left out. Further columns of the screen follow, without active or inactive calls. The list favours compounds with an active or inconclusive main result. The note in brackets gives the kind of curve behind each potency; many fits are weak.

Test: qHTS Assay to Find Inhibitors of Chronic Active B-Cell Receptor Signaling
Conditions: ABC-DLBCL IkBa-CBG/CBR reporter, luminescence ratio (green luciferase fused to IkBa over red control in TMD8 lymphoma cells), 4 h
Method in brief: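 Compounds up to 46 uM were incubated four hours with TMD8 cells whose green CBG68 luciferase is fused to IkappaBalpha; red CBR luminescence normalised the signal, and concentration-effect curves were fitted to fusion, red and ratio data.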

[1] = measured here: CBR red luminescence, cell number

SMILES: Cc1ccc(N)c(C(=O)c2ccc(Br)cc2)c1
- AC50 [1]: 35.5 µM [rising, single point]

SMILES: O=c1cc(CN2CCNCC2)nc2sccn12
- AC50 [1]: 15.8 µM [rising, single point]

SMILES: O=C(c1cccc(C(F)(F)F)c1)C1CCCN(Cc2ccccc2O)C1 (configuration not stated)
- AC50 [1]: 0.501 µM [rising, full curve, poor fit]

SMILES: O=C(N/N=C/c1c(O)n(Cc2ccccc2)c(=O)[nH]c1=O)c1ccccc1
- AC50 [1]: 3.26 µM [falling, full curve]

SMILES: CCN(CC)C(=O)c1ccc(NC(=O)Cn2nc(C)c3ccccc3c2=O)cc1
- AC50 [1]: 2.31 µM [rising, full curve]

SMILES: O=C(Nc1ccc(Cl)cc1)OC1CN2CCC1CC2 (configuration not stated)
- AC50 [1]: 3.98 µM [rising, single point]

SMILES: O=c1c2ccccc2nc(-c2cccs2)n1-c1ccccc1
- AC50 [1]: 2.24 µM [rising, full curve]

SMILES: Cc1cc(C=O)c(C)n1CC1CCCO1 (configuration not stated)
- AC50 [1]: 29.1 µM [rising, single point]

SMILES: CC(=O)c1cn(Cc2ccccc2F)c2ccccc12
- AC50 [1]: 14.1 µM [rising, single point]

SMILES: O=CC(Cl)P(=O)(N1CCCCC1)N1CCCCC1 (configuration not stated)
- AC50 [1]: 20 µM [rising, single point]

SMILES: Cc1cc2cc(OCc3ccccc3)ccc2n1C
- AC50 [1]: 2 µM [rising, partial curve, poor fit]

SMILES: CC(C)C[C@H]1C(=O)N2CCCC2[C@]2(O)O[C@](NC(=O)[C@@H]3C=C4c5cccc6[nH]cc(c56)CC4N(C)C3)(C(C)C)C(=O)N12 (some centres not stated)
- AC50 [1]: 3.26 µM [falling, partial curve, poor fit]

SMILES: COC1CCCCC1NCCc1ccccc1 (configuration not stated)
- AC50 [1]: 35.5 µM [falling, single point]

SMILES: CCn1c(O)c(/C=N/NC(=O)c2ccccc2)c(=O)[nH]c1=S
- AC50 [1]: 0.708 µM [falling, full curve]

SMILES: C=CCSc1nc2c(c(-c3ccsc3)c1C#N)CN(C)CC2
- AC50 [1]: 7.08 µM [falling, partial curve]

SMILES: CS(=O)(=O)Nc1ccc(Cc2noc(-c3ccc4[nH]cc(CCN)c4c3)n2)cc1
- AC50 [1]: 5.62 µM [rising, single point]

SMILES: COc1cc(/C=C/c2nc3ccccc3c(=O)n2-c2ccc(O)cc2)ccc1O
- AC50 [1]: 11.2 µM [falling, partial curve, poor fit]

SMILES: CCCCn1c(O)c(C(CC)=NCc2cc(OC)cc(OC)c2)c(=O)[nH]c1=O
- AC50 [1]: 2.24 µM [rising, full curve, poor fit]

SMILES: O=c1[nH]sc2cc(F)ccc12
- AC50 [1]: 8.91 µM [falling, partial curve, poor fit]
- AC50 (measured here: IkBa-CBG green luminescence): 6.31 µM [rising, full curve]

SMILES: COc1cc(/C=C/C(=O)c2ccc3c(c2)OCO3)cc(Cl)c1O
- AC50 [1]: 12.6 µM [falling, partial curve, poor fit]

SMILES: CN(C)C(=O)Oc1ccc2oc(=O)cc(-c3cc4ccccc4o3)c2c1
- AC50 [1]: 0.316 µM [rising, full curve, poor fit]

SMILES: COCCCn1c(N)c(C(=O)NCCC(C)C)c2nc3ccccc3nc21
- AC50 [1]: 12.6 µM [falling, partial curve, poor fit]

SMILES: Cn1c(O)c(/C=N/N2CCOCC2)c(=O)n(C)c1=S
- AC50 [1]: 8.91 µM [falling, partial curve]

SMILES: Cc1cc(-c2ccccc2)nc(N/N=C/c2ccccc2F)n1
- AC50 [1]: 10 µM [falling, single point]

SMILES: CCCCCCC(=O)N/N=C/c1c(O)n(CCc2ccccc2)c(=O)[nH]c1=O
- AC50 [1]: 25.1 µM [falling, single point]

SMILES: CCN1CCN(Cc2cc(OC)c(OC)cc2[N+](=O)[O-])CC1
- AC50 [1]: 35.5 µM [falling, single point]

SMILES: O=C1NC(=O)N(c2ccc3c(c2)OCO3)C(=O)/C1=C\c1ccc(N2CCCCC2)o1
- AC50 [1]: 20.6 µM [falling, single point]

SMILES: CC(C)[C@H]1C(=O)N2CCC[C@H]2[C@]2(O)O[C@](NC(=O)[C@@H]3C=C4c5cccc6[nH]cc(c56)C[C@H]4N(C)C3)(C(C)C)C(=O)N12
- AC50 [1]: 20.6 µM [rising, partial curve, poor fit]

SMILES: CNc1ccc2nc3ccccc3[n+](C)c2c1
- AC50 [1]: 0.501 µM [falling, full curve, poor fit]

SMILES: O=c1[nH]c(=O)n(CCc2ccc(F)cc2)c(O)c1C=NCCCn1ccnc1
- AC50 [1]: 6.51 µM [falling, single point]

SMILES: NC(=Nc1ccccc1)Nc1ccccc1
- AC50 [1]: 2 µM [rising, partial curve, poor fit]

SMILES: C1CCC(c2nn3c(-c4n[nH]c5c4CCC5)nnc3s2)CC1
- AC50 [1]: 22.4 µM [falling, partial curve, poor fit]

SMILES: COc1cc(/C=N/NC(=O)c2ccccc2)ccc1O
- AC50 [1]: 11.2 µM [falling, partial curve]

SMILES: CC(=O)OC(C)(C)/C=C/C(=O)[C@](C)(O)C1[C@H](O)C[C@@]2(C)C3CC=C4C(C[C@H](O)C(=O)C4(C)C)[C@]3(C)C(=O)C[C@]12C (some centres not stated)
- AC50 [1]: 23.1 µM [falling, single point]

SMILES: O=C1NC(=O)C(=Cc2ccc(-c3ccc(S(=O)(=O)N4CCOCC4)cc3)o2)C(=O)N1
- AC50 [1]: 6.31 µM [rising, single point]

SMILES: COC(=O)C1=C(c2ccc(OC(F)(F)F)cc2)C[C@@H]2CC[C@H]1N2C(=O)N1CCOCC1
- AC50 [1]: 29.1 µM [rising, single point]

SMILES: CCNC(=O)NC(=O)C(C)OC(=O)c1c(C)nn(Cc2ccccc2Cl)c1Cl (configuration not stated)
- AC50 [1]: 29.1 µM [falling, single point]

SMILES: Cc1cc(C)c(N)cc1C
- AC50 [1]: 10.3 µM [falling, partial curve, poor fit]

SMILES: CC12CN3CCN(C1)CC(C)(C3)C2=NO
- AC50 [1]: 3.66 µM [rising, single point]

SMILES: COC(=O)C1=C(c2ccc3ccccc3c2)C[C@@H]2CC[C@H]1N2C(=O)NC1CCCCC1
- AC50 [1]: 3.26 µM [falling, single point]

SMILES: Oc1ccc(/C=N/NP(=S)(c2ccccc2)c2ccccc2)cc1
- AC50 [1]: 20.6 µM [falling, partial curve]
